The text below walks through data of US20250073355A1, “CD44-BINDING PEPTIDE REAGENTS AND METHODS” (THE REGENTS OF THE UNIVERSITY OF MICHIGAN, priority 2021, published 2025).

By UniProt entry, the sequences of proteins in these tests, tags left out. Residues count along the entry.
UniProt P16070, 21-742: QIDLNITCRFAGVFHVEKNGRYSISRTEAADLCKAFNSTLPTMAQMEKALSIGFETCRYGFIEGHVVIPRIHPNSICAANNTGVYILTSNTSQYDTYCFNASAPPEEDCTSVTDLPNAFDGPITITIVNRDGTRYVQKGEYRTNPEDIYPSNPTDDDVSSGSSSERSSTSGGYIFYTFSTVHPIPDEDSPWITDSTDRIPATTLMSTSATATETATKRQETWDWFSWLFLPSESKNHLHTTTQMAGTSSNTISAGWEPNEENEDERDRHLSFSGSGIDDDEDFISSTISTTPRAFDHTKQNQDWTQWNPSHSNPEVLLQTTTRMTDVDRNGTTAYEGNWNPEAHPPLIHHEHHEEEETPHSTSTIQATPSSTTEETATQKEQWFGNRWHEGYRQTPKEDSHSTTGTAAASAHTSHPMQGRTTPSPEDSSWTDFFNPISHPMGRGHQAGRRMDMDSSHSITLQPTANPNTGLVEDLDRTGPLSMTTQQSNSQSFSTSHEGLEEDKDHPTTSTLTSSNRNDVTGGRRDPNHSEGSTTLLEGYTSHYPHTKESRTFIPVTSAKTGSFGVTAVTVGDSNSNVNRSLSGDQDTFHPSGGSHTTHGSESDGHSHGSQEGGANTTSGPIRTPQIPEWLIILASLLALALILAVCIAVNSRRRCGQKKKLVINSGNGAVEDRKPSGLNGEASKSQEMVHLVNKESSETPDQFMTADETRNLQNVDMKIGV

In this test the target is T1, CD44 (Homo sapiens, UniProt P16070).
T1 construct: endogenous in cells; host or cells: SK-Hep1 (human HCC cells)
In words: siRNA knockdown of CD44 in SK-Hep1 cells, confocal binding. It is filed as cell-based. As to conditions: 4 μM peptide, 3 min; confocal microscopy. On the procedure: CD44 expression in SK-Hep1 cells was knocked down using three different siRNAs, including 1) L-009999-00-0005, Dharmacon; 2) s2681, Thermo Fisher; and 3) 106160, Thermo Fisher. MISSION® siRNA Universal Negative Control (SIC001, Sigma) was used for control. Cells were transfected with Lipofectamine 2000 (11668027, Invitrogen) per manufacturer instructions, and then incubated with 4 μM of peptide for 3 min. A 1:3000 dilution of rabbit anti-CD44 antibody (EPR18668, Abcam) was used for positive control. CD44 expression was determined by Western blot within 72 hours.
Approximately 10^3 SK-Hep1 and Hep 3B cells were grown on cover glass in 24-well plate to ˜70% confluence. The cells were washed with PBS 1× and incubated with 4 μM of either target or control peptide for 3 min. The cells were then washed 3× in PBS, fixed with 4% paraformaldehyde (PFA) for 8 min, washed 3× with PBS then incubated with 2% BSA, 1% goat serum in PBS for 30 min. […] Confocal fluorescence images were collected on Leica SP8 confocal microscope using a 63× oil-immersion objective. Fluorescence intensities were quantified using custom MATLAB (Mathworks) software.

For `CC(C)C[C@H](NC(=O)[C@H](Cc1ccc(O)cc1)NC(=O)[C@H](CO)NC(=O)[C@H](Cc1c[nH]c2ccccc12)NC(=O)CNC(=O)[C@H](CCCCN)NC(=O)[C@@H](N)Cc1c[nH]c2ccccc12)C(=O)N[C@@H](Cc1c[nH]c2ccccc12)C(=O)N[C@H](C(=O)N[C@@H](CCC(N)=O)C(=O)N[C@@H](CCC(N)=O)C(=O)N[C@@H](C)C(=O)NCC(=O)NCC(=O)NCC(=O)N[C@@H](CO)C(=O)N[C@@H](CSC1CC(=O)N(CCNC(=O)CCCCCN2C(=CC=C3CCCC(C=CC4=[N+](CCCCS(=O)(=O)[O-])c5ccc(S(=O)(=O)O)cc5C4(C)C)=C3Oc3ccc(S(=O)(=O)O)cc3)C(C)(C)c3cc(S(=O)(=O)O)ccc32)C1=O)C(N)=O)[C@@H](C)O` (stereo partly shown) [WKG*-IRDye800], the “binding to the surface of SK-Hep1 cells transfected with siCL (control)” value was “strong binding”.
